# Data as given in PubChem BioAssay AID1259254 (NCATS, 2017)
# Assay: 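Gene knock-downs that lead to re-replication, shown by excess G2 DNA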 (primary screen)
# Cells: human HCT116 colorectal cancer cells
# Reagent: single siRNA against human genes
# Timing: 3 days
# Measured: 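Nuclei stained with Hoechst and imaged; cell-cycle phase assigned by DNA content; G2 share scaled per plate, non-targeting siRNA 0%, GMNN siRNA 100%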
# Scale: G2 robust z-score and G2 cells, % of GMNN control: higher = more G2 cells, more excess DNA replication
# Active means: 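An siRNA counts as active if its G2 robust z-score lies at least 5 MADs above the screen median; here such calls match roughly 38% of GMNN control or more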
# The deposit covers about 59,000 reagents; this is an unselected part. About 1,550 of all reagents (2.6%) were called active. 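G2 share is only a proxy for re-replication; each gene was hit by three separate siRNAs, and active genes were retested.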 Unmarked entries are inactive. The numbers tell different reagents against one gene apart. Not all columns of the deposit are shown. No sequences are given here. Not given: the amount of reagent.
The opening 4 records as a preview:
Target gene,reagent no.,G2 robust z-score,"G2 cells, % of GMNN control"
SFXN1 (GeneID 94081),1,-0.431,-0.0635
SFXN1 (GeneID 94081),2,0.265,4.83
SFXN1 (GeneID 94081),3,0.678,7.74
RGPD3 (GeneID 653489),1,-0.156,1.87

The listing, from the first entry:
Target gene,reagent no.,G2 robust z-score,"G2 cells, % of GMNN control"
SFXN1 (GeneID 94081),1,-0.431,-0.0635
SFXN1 (GeneID 94081),2,0.265,4.83
SFXN1 (GeneID 94081),3,0.678,7.74
RGPD3 (GeneID 653489),1,-0.156,1.87
RGPD3 (GeneID 653489),2,-0.147,1.93
RGPD3 (GeneID 653489),3,-0.928,-3.56
CRADD (GeneID 8738),1,2.21,18.5
CRADD (GeneID 8738),2,-0.605,-1.29
CRADD (GeneID 8738),3,-1.27,-5.96
NKX2-3 (GeneID 159296),1,-1.04,-4.34
NKX2-3 (GeneID 159296),2,2.03,17.2
NKX2-3 (GeneID 159296),3,1.62,14.4
TMEM244 (GeneID 253582),1,4.12,31.9
TMEM244 (GeneID 253582),2,0.0434,3.27
TMEM244 (GeneID 253582),3,-0.103,2.24
GCFC2 (GeneID 6936),1,1.54,13.8
GCFC2 (GeneID 6936),2,-0.653,-1.63
GCFC2 (GeneID 6936),3,-0.478,-0.393
MCF2L (GeneID 23263),1,-0.692,-1.9
MCF2L (GeneID 23263),2,-0.481,-0.418
MCF2L (GeneID 23263),3,0.418,5.91
PIM1 (GeneID 5292),1,-0.759,-2.37
PIM1 (GeneID 5292),2,-0.0657,2.5
PIM1 (GeneID 5292),3,-1.36,-6.59
WWC2-AS2 (GeneID 152641),1,-0.447,-0.175
WWC2-AS2 (GeneID 152641),2,0.684,7.78
WWC2-AS2 (GeneID 152641),3,0.0635,3.41
TFAP2A (GeneID 7020),1,-0.57,-1.04
TFAP2A (GeneID 7020),2,0.231,4.59
TFAP2A (GeneID 7020),3,-0.768,-2.44
FLJ32154 (retired record) (GeneID 149650),1,-0.588,-1.17
FLJ32154 (retired record) (GeneID 149650),2,-0.525,-0.728
FLJ32154 (retired record) (GeneID 149650),3,-0.62,-1.4
UPK3A (GeneID 7380),1,0.203,4.4
UPK3A (GeneID 7380),2,8.12 (active),60.1
UPK3A (GeneID 7380),3,2.98,24
GPR151 (GeneID 134391),1,0.0355,3.22
GPR151 (GeneID 134391),2,-0.562,-0.988
GPR151 (GeneID 134391),3,-0.419,0.0229
NHSL1 (GeneID 57224),1,0.051,3.33
NHSL1 (GeneID 57224),2,0.673,7.7
NHSL1 (GeneID 57224),3,0.000493,2.97
NPIPB15 (GeneID 440348),1,-0.653,-1.62
NPIPB15 (GeneID 440348),2,-0.451,-0.206
NPIPB15 (GeneID 440348),3,0.688,7.81
LOC285191 (GeneID 285191),1,-0.178,1.71
LOC285191 (GeneID 285191),2,-0.831,-2.88
LOC285191 (GeneID 285191),3,0.23,4.59
